Experimental data: publication PMC11248248

By UniProt entry, the sequences of proteins in these tests, tags left out. Where a name states a change or a piece, a line headed by the entry shows the natural chain unless it says otherwise.
UniProt Q12522: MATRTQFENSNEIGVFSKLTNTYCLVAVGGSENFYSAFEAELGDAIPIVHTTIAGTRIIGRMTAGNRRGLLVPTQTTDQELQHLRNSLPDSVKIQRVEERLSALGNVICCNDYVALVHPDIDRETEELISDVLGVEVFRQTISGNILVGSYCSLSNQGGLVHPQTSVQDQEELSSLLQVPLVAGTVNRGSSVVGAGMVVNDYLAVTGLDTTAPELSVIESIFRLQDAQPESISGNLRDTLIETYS
UniProt P32337: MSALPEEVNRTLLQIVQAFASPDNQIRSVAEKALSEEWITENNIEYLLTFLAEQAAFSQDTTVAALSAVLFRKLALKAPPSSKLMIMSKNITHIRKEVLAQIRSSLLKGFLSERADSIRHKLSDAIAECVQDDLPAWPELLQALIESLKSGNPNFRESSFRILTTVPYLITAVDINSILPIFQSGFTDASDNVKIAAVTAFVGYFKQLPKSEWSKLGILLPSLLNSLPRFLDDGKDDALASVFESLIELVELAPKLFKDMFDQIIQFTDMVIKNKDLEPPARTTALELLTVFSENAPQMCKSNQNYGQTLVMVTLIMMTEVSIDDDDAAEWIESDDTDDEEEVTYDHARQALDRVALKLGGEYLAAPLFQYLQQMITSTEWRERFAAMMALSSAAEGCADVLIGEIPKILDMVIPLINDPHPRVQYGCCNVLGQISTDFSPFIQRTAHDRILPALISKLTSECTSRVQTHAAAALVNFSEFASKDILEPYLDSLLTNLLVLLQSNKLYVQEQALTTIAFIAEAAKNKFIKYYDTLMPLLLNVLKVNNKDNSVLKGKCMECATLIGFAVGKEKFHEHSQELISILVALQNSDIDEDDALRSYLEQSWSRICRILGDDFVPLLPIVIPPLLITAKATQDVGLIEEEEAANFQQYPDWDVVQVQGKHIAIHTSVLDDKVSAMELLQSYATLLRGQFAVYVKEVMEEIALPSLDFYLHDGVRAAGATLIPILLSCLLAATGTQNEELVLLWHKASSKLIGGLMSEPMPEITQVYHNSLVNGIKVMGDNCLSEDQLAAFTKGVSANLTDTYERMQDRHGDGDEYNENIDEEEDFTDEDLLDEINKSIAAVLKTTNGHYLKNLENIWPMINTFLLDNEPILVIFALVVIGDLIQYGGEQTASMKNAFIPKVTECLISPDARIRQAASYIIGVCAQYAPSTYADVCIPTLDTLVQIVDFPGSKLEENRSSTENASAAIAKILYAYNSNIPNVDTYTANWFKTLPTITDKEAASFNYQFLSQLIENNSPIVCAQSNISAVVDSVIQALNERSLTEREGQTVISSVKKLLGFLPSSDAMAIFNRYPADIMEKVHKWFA
UniProt P0CX41: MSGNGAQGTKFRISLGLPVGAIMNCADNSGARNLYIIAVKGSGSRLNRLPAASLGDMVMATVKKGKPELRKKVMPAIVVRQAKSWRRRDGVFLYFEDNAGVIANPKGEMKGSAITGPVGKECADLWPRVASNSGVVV

How the values were obtained:
[1] = target: T1, Bcp1-myc (S. cerevisiae) (UniProt Q06338); experiment: co-IP; myc-tagged bait precipitated with anti-c-myc antibody and protein A beads from yeast extracts in IP buffer (20 mM Tris pH 7.5, 50 mM NaCl, 6 mM MgCl2, 10% glycerol), 4°C; wild-type, rkm1Δ and GAL::RPL23 (4 h glucose) strains
T1 sequence: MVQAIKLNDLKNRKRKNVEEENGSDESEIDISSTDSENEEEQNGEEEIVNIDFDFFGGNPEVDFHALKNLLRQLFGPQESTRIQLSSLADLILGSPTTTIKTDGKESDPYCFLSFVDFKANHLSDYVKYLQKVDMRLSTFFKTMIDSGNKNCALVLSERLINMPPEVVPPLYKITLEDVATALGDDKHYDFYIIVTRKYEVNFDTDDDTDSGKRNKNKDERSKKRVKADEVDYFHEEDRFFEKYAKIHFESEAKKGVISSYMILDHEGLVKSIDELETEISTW

[2] = target: Tif6-myc (S. cerevisiae) (UniProt Q12522); experiment: as above
[3] = target: T2, Rkm1-myc (S. cerevisiae) (UniProt Q08961); experiment: as above
T2 sequence: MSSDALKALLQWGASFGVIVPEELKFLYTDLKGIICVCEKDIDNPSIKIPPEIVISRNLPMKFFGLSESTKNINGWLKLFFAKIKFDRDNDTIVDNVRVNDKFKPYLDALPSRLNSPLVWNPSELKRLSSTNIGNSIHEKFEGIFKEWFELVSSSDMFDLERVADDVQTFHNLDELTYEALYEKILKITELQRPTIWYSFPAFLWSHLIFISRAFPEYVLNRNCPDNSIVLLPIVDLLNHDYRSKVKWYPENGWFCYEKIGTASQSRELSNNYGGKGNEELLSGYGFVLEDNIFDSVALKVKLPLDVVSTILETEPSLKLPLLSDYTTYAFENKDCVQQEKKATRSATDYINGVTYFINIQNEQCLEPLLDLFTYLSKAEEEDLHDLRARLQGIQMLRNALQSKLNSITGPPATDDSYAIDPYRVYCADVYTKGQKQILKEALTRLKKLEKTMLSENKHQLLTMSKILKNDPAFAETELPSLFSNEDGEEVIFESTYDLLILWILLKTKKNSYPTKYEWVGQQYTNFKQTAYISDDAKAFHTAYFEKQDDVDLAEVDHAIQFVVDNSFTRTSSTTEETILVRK

[4] = target: GST-Kap121 (S. cerevisiae) (UniProt P32337); experiment: pull-down; release test: GST-Kap in complex with cargo immobilised on glutathione beads, purified Bcp1 or bcp1ΔN added for another hour at 4°C; what is left on the beads or in the supernatant by western blotting; both purified
[5] = target: Bcp1-His6 (S. cerevisiae) (UniProt Q06338); experiment: pull-down; Bcp1-His6 or bcp1ΔN mutants immobilised on Ni-NTA beads, recombinant uL14 or uL14 mutants
[6] = target: T3, GST-Rkm1 (S. cerevisiae) (UniProt Q08961); experiment: pull-down; complex of GST-Rkm1 or GST-Rkm1(Y273F) with uL14 or uL14 mutants purified and held on glutathione beads; buffer alone or 0.5 mM SAM, 30°C, 80 min; three washes
T3 sequence: T2 sequence

Substance | binding [1] | binding [2] | binding [3] | binding [4] | binding [5] | binding [6]
uL14(Δloop)-HA (from UniProt P0CX41) | no binding | binds | binds | – | – | –
uL14Δloop (recombinant) (from UniProt P0CX41) | – | – | – | binds | no binding | binds

These are yes or no findings as the source states them, for the method shown. For part of these data: Binding can be weak; no strength is given. For part of these data: In cells and extracts the contact can be indirect. For part of these data: Where a sequence is shown, tags or fusion partners need not be part of it.
